System: human U251-MG glioblastoma cells
Experiment: RNA-seq transcriptome analysis
Format: cell-based
Settings: 400 nM, 48 h, vs DMSO
Protocol: DNase-treated RNA prepared from one well of a six-well plate (approximately 10^6 cells) was extracted using the Quick-RNA MiniPrep kit (Zymo Research) from human U251-MG glioblastoma cells (ECACC 09063001) after 48 h of treatment with compound 1. PolyA-selected RNA-seq libraries were prepared and sequenced at the Vanderbilt Technologies for Advanced Genomics (VANTAGE) core on an Illumina NextSeq500. Bases and reads with low-quality scores or reads, were removed, and Illumina library adapter sequences were trimmed using bbDuk (https://jgi.doe.gov/data-and-tools/software-tools/bbtools/bb-tools-user-guide/bbduk-guide/). The resulting files were mapped to hg38 using HiSat2, and poorly mapped reads were removed with SamTools. Reads mapping to RefSeq genes were counted using HTSeq-count and differential expression was assessed using DESeq2 with Apeglm LFC Shrinkage, expressed as compound 1/DMSO in all log 2 fold-change expressions. Gene sets from the Molecular Signatures Database (version 6.1) were used for Gene Set Enrichment Analysis (GSEA).

Cc1cc(C)cc(-c2onc3ccc(/C=C/C(=O)O)cc23)c1 [Compound 1, (E)-3-(3-(3,5-Dimethylphenyl)benzo[c]isoxazol-5-yl)acrylic Acid]
differentially expressed transcripts (p adj < 0.05, log2FC > ±1): 993
transcripts downregulated: 661
transcripts upregulated: 332

Source: publication PMC12362615, “Design, Synthesis, and Cellular Characterization of a New Class of IPMK Kinase Inhibitors” (Journal of Medicinal Chemistry, 2025)
